Read-outs that look alike come from different tables or passages of the source. These are yes or no findings as the source states them, for the method shown. Some binding calls cover weakened binding; strength is not graded here.
Tests used:
[1] = biological target: T1, GABAA receptor γ2 subunit (Gabrg2) (mouse (endogenous in cerebellum)) (UniProt P22723); test: native gel or EMSA; antibody-shift BN-PAGE with mass spectrometry: 10 μg mouse cerebellum homogenate (1% MNG) incubated 1 h with or without 4 μg anti-γ2 antibody (N452/69), NativePAGE 4-16% Bis-Tris at 4 °C, gel slices analysed by diaPASEF LC-MS
T1 sequence: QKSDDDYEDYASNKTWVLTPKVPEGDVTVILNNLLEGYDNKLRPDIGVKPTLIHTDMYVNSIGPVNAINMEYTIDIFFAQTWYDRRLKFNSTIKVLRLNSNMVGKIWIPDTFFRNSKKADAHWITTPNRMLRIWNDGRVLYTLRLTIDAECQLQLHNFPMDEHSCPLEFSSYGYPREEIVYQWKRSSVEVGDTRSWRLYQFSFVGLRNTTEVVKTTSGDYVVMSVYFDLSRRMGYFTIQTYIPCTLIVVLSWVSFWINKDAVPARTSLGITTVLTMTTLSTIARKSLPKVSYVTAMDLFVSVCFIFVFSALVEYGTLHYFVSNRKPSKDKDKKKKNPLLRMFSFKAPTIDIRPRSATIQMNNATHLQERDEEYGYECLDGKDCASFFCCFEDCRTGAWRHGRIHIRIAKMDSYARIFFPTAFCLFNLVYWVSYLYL

Sequences of proteins named here, by UniProt entry; tags and fusion partners are left off. Residues count along the entry.
UniProt Q69ZK9, residues 15-836: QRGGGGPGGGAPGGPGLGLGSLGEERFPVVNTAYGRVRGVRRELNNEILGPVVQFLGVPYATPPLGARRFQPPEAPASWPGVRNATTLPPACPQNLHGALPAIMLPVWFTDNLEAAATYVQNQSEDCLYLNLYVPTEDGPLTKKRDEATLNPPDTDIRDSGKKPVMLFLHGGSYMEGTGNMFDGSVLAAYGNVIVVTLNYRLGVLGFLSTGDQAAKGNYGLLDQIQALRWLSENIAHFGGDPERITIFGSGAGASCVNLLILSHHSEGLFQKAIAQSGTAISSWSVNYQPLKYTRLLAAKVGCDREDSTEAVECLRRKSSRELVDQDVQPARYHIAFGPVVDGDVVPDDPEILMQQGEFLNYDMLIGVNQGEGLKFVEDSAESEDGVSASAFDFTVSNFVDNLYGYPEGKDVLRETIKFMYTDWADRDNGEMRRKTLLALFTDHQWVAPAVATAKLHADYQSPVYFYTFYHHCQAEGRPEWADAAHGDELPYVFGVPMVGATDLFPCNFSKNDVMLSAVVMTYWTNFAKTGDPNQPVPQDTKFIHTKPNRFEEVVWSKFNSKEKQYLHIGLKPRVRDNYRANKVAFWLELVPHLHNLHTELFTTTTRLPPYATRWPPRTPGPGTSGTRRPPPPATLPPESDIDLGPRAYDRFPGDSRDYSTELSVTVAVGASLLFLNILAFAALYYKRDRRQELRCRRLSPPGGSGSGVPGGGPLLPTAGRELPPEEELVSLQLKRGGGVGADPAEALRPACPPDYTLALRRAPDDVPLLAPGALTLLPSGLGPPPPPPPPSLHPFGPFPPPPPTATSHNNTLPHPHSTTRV

[2] = biological target: GABAA receptor α6 subunit (Gabra6) (mouse (endogenous in cerebellum)) (UniProt P16305); test: native gel or EMSA; antibody-shift BN-PAGE with mass spectrometry: 10 μg mouse cerebellum homogenate (1% MNG) incubated 1 h with or without 4 μg anti-α6 antibody (Gabra6-a), NativePAGE 4-16% Bis-Tris at 4 °C, gel slices analysed by LC-MS (DIA)
[3] = biological target: T2, GABAA receptor α6 subunit (Gabra6) (mouse (endogenous in cerebellum)), P16305; test: native gel or EMSA; antibody-shift BN-PAGE with immunoblot: cerebellum lysate with or without anti-Gabra6 antibody, transferred to PVDF and immunostained for Gabra1; details: remark: other sources report otherwise
T2 chain: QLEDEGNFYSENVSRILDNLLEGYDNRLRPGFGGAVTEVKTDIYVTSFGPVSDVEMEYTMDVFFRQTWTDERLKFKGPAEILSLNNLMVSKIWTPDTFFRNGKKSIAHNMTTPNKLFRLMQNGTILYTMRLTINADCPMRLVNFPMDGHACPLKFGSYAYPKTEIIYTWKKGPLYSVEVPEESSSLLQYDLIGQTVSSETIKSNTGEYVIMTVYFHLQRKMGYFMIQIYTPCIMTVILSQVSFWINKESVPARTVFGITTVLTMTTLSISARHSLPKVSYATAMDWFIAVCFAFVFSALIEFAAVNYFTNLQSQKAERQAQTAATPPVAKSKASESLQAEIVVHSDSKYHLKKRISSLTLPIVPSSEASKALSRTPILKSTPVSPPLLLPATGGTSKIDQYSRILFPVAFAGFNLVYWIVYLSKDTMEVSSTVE

[4] = biological target: T2, GABAA receptor α6 subunit (Gabra6) …; test: native gel or EMSA; antibody-shift BN-PAGE with mass spectrometry: 10 μg mouse cerebellum homogenate (1% MNG) incubated 1 h with or without 4 μg anti-α6 antibody (Gabra6-a), NativePAGE 4-16% Bis-Tris at 4 °C, gel slices analysed by LC-MS (DIA); details: remark: other sources report otherwise
[5] = biological target: GABAA receptor α6 subunit (Gabra6) (mouse (endogenous in cerebellum)) (UniProt P16305); test: as above; remark: listed apart in the source

GABAA receptor α6 subunit (Gabra6) (from UniProt P16305 20-453)
binding [1]: binds

Neuroligin-2 (Nlgn2) (from UniProt Q69ZK9 15-836)
binding [2]: binds | binding [1]: binds

B1: GABAA receptor α1 subunit (Gabra1), P62812 28-455 (protein)
chain: QPSQDELKDNTTVFTRILDRLLDGYDNRLRPGLGERVTEVKTDIFVTSFGPVSDHDMEYTIDVFFRQSWKDERLKFKGPMTVLRLNNLMASKIWTPDTFFHNGKKSVAHNMTMPNKLLRITEDGTLLYTMRLTVRAECPMHLEDFPMDAHACPLKFGSYAYTRAEVVYEWTREPARSVVVAEDGSRLNQYDLLGQTVDSGIVQSSTGEYVVMTTHFHLKRKIGYFVIQTYLPCIMTVILSQVSFWLNRESVPARTVFGVTTVLTMTTLSISARNSLPKVAYATAMDWFIAVCYAFVFSALIEFATVNYFTKRGYAWDGKSVVPEKPKKVKDPLIKKNNTYAPTATSYTPNLARGDPGLATIAKSATIEPKEVKPETKPPEPKKTFNSVSKIDRLSRIAFPLLFGIFNLVYWATYLNREPQLKAPTPHQ
binding [3]: binds | binding [4]: binds

B2: Gephyrin (Gphn) (protein, UniProt Q8BUV3 1-769)
chain: MATEGMILTNHDHQIRVGVLTVSDSCFRNLAEDRSGINLKDLVQDPSLLGGTISAYKIVPDEIEEIKETLIDWCDEKELNLILTTGGTGFAPRDVTPEATKEVIEREAPGMALAMLMGSLNVTPLGMLSRPVCGIRGKTLIINLPGSKKGSQECFQFILPALPHAIDLLRDAIVKVKEVHDELEDLPSPPPPLSPPPTTSPHKQTEDKGVQCEEEEEEKKDSGVASTEDSSSSHITAAALAAKIPDSIISRGVQVLPRDTASLSTTPSESPRAQATSRLSTASCPTPKQIRRPDESKGVASRVGSLKARLPSCSSTYSVSEVQSRCSSKENILRASHSAVDITKVARRHRMSPFPLTSMDKAFITVLEMTPVLGTEIINYRDGMGRVLAQDVYAKDNLPPFPASVKDGYAVRAADGPGDRFIIGESQAGEQPTQTVMPGQVMRVTTGAPIPCGADAVVQVEDTELIRESDDGTEELEVRILVQARPGQDIRPIGHDIKRGECVLAKGTHMGPSEIGLLATVGVTEVEVNKFPVVAVMSTGNELLNPEDDLLPGKIRDSNRSTLLATIQEHGYPTINLGIVGDNPDDLLNALNEGISRADVIITSGGVSMGEKDYLKQVLDIDLHAQIHFGRVFMKPGLPTTFATLDIDGVRKIIFALPGNPVSAVVTCNLFVVPALRKMQGILDPRPTIIKARLSCDVKLDPRPEYHRCILTWHHQEPLPWAQSTGNQMSSRLMSMRSANGLLMLPPKTEQYVELHKGEVVDVMVIGRL
binding [5]: no binding
